{
  "source": "patent US9127035B2",
  "about": "“Compounds for use in the treatment of bacterial infection” (THE ROYAL INSTITUTION FOR THE ADVANCEMENT OF …, priority 2011, dated 2015)",
  "molecular_target": "T1, E. coli pantothenate kinase (PanK or coaA enzyme) (Escherichia coli, UniProt P0A6I3)",
  "T1 construct": "made in house",
  "T1 sequence (P0A6I3 1-316)": "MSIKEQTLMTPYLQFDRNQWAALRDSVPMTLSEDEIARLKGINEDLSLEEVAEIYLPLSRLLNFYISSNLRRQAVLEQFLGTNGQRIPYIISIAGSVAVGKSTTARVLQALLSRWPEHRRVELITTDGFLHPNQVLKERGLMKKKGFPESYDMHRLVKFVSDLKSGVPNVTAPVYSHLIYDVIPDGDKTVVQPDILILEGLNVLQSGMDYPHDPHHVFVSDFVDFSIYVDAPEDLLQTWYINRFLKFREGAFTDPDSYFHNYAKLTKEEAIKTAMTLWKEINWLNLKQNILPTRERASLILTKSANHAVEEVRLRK",
  "test": "PanK enzyme assay (Michaelis-Menten kinetics)",
  "assay_type": "biochemical",
  "conditions": "catalytic efficiency of transformation by PanK",
  "procedure": "PanK enzyme assay. The E. coli pantothenate kinase (PanK or coaA enzyme) was expressed and purified as previously described. Enzyme activity was measured as described in the literature [Strauss E, Begley T P J Biol Chem, 2002, 277:48205-48209]. This assay couples the production of ADP to the consumption of NADH through the activity of pyruvate kinase and lactic dehydrogenase. The decrease of NADH concentration was monitored at 340 nm. Reactions were performed at 25° C. in an Agilent 8453 UV-Vis spectrophotometer coupled to an Agilent 89090A Peltier temperature controller. Kinetic parameters were determined by fitting the rate data into the Michaelis-Menten equation using Prism 4.0 (GraphPad). Each reaction mixture (500 μL) contained ATP (1.5 mM), NADH (0.3 mM), phosphoenolpyruvate (0.5 mM), MgCl2 (10 mM), KCl (20 mM), pyruvate kinase (5 units), lactic dehydrogenase (5 units), and PanK (5 μg, 278 nM) in Tris-HCl buffer (50 mM, pH 7.6). The reaction was initiated by addition of the desired substrate (10-160 μM). All data points are from triplicate experiments.",
  "note": "At least one read-out could not be matched to a standard name with certainty.",
  "data": [
    {"smiles": "CC(C)(CO)[C@@H](O)C(=O)NCCC(=O)NCCS", "note": "[Pantetheine, reference compound]", "values": [
      {"measurement": "kcat/Km", "value": "3500 ± 400", "unit": "M⁻¹ s⁻¹"}
    ]}
  ]
}
